Source: patent publication US12384821B2, “Antimicrobial peptides and compositions, methods, articles and kits relating thereto” (George Mason University, priority 2020, dated 2025)
Part of at least one peptide drawing is inferred or uncertain, most often the ends. Some results were stated once for a whole list of compounds, not compound by compound. Where no end group is shown, it is not given here.

Key:
[1] = tested on: carbapenem-resistant K. pneumoniae strain (ATCC BAA-1705); type: cell-based, Klebsiella pneumoniae; parameters: MIC (unit not given): unit not given beside the values; conditions: for MIC (unit not given): against CRKP; for Change of MIC compared to DRGN-6: increase = decreased effectiveness
Protocol: Klebsiella pneumoniae ATCC BAA-1705 was purchased from the American Type Culture Collection (Manassas, VA) and grown in Cation-Adjusted Mueller Hinton Broth. Bacteria were aliquoted and frozen at −80° C. with 20% glycerol and enumerated via serial dilution and plating prior to experimentation.
The minimum inhibitory concentration (MIC) of the peptides was determined according to Clinical & Laboratory Standards Institute (CLSJ) guidelines. Bacteria were grown overnight on Cation-adjusted Mueller Hinton Agar (BD 211438, CAMHA) at 37° C. Assays were performed in Cation-adjusted Mueller Hinton Broth (BD 212322, CAMHB) in polypropylene 96 well plates (Corning 3879). Each experiment was performed with three replicates at least three times.

[2] = tested on: K. pneumoniae strain ATCC BAA-1705; assay: DiSC3(5) membrane depolarization assay; type: cell-based, Klebsiella pneumoniae; conditions: PBS, 100, 10 and 1 μg/ml, 20 min
Protocol: FIGS. 2A-2B are graphs showing (A) membrane disruption as measured by ethidium bromide uptake against K. pneumoniae strain ATCC BAA-1705 in PBS at 50 μg/ml. Δ RFU shown is after 20 min incubation, done twice in triplicate. A one-way ANOVA with multiple comparisons was performed to determine statistical significance (* p<0.05; ** p<0.01; *** p<0.001); and (B) membrane depolarization Membrane depolarization was measures using 3,3′-dipropylthiadicarbocyanine iodide (DiSC3(5)) against K. pneumoniae strain ATCC BAA-1705 in PBS at 100, 10 and 1 μg/ml. Δ RFU shown is after 20 min incubation, done twice in triplicate. DRGN-6 refers to SEQ ID NO:6, DRGN-7 refers to SEQ ID NO:6 with N-terminus acetylated, DRGN-8 refers to SEQ ID NO:7, NACATH refers to SEQ ID NO:9.
Membrane depolarization was measured using DiSC3(5) (3,3′-dipropylthiadicarbocyanine iodide) as previously described with some modifications. Stocks of enumerated frozen Klebsiella pneumonia ATCC BAA-1705 were pelleted and washed twice in phosphate buffered saline (PBS) and then resuspended to 4×10^7 CFU/ml in PBS containing 50 μg/ml DiSC3(5). […] The plate was incubated in a fluorescence spectrophotometer (Tecan Infinite 200) and monitored until fluorescence stopped decreasing. […] Readings were taken at 20 minutes after addition of peptide (excitation=635 nm; emission=670 nm). […]

[3] = Circular dichroism spectroscopy, percent alpha-helicity; type: physicochemical; conditions: 100 μg/mL peptide
Protocol: Circular dichroism (CD) analysis of the peptides was performed using a Jasco J-1500 spectropolarimeter. 100 μg/mL of peptide was used in each experiment. Samples were allowed to equilibrate for 5 min prior to data collection at 25° C. in a 1 mm path length cuvette. Spectra were collected from 190 to 260 nm with at 20 nm/min, a data integration time of 4 seconds and a 1 nm bandwidth. Data shown represents the average of four spectra. The peptides were analyzed in 10 mM sodium phosphate buffer (6.12 mM sodium monohydrogen phosphate heptahydrate; 3.92 mM monosodium phosphate anhydrous; pH 7.4), 50% (v/v) trifluoroethanol (TFE) in phosphate buffer, or 60 mM sodium dodecyl sulfate (SDS) in phosphate buffer. Percent contribution to secondary structure was measured using methods described in Raussens, V. et al. (Analytical Biochemistry, 319(1):114-21 (2003)).
The secondary structures of many CAMPs are disordered in the absence of anionic membranes or micelles, but adopt more defined secondary structures in their presence. To detect and measure any changes that the DRGN peptides may undergo based on environment, we studied their structural properties in 10 mM phosphate buffer as a negative control, 60 mM SDS in 10 mM phosphate buffer and 50% 2,2,2-Trifluoroethanol (TFE) in 10 mM phosphate buffer. Phosphate buffer without SDS or TFE provided an environment for studying the conformational properties of the peptides structure in the absence a micelle or membrane. Sodium dodecyl sulfate is an anionic surfactant that can form micelles in aqueous buffers mimicking bacterial membranes and simulating the effects an anionic membrane can have on the conformations of antimicrobial peptides. Addition of trifluoroethanol to aqueous buffer promotes increased structure, usually helicity, in peptides with suitable sequences.

CRKP infected waxworms = assay: Waxworm infection model (CRKP infected G. mellonella); type: in vivo, Galleria mellonella; conditions: single injection 30 min after infection
Protocol: FIG. 5 is a graph showing waxworm survival curves. Waxworms were injected with 10 μL containing 5×10^5 CFU in their rear left proleg. The waxworms were allowed to recover for 30 minutes at 37° C. They were injected with 10 μL containing the various treatments. They were kept at 37° C. and scored for survival every 24 hours. Each group contained 10 waxworms.
Galleria mellonella larvae were obtained from Vanderhorst Wholesale (Saint Marys, OH, USA). 10 larvae weighing between 250 and 300 mg were randomly assigned to each group. Waxworms were injected with 10 μL containing […] suspended in DPBS in their rear left proleg. The waxworms were then allowed to recover for 30 minutes at 37° C. They were then injected with 10 μL DPBS containing the various treatments into their rear right proleg. They were then kept at 37° C. and scored for survival every 24 hours.
We tested these antimicrobial peptides in the waxworm, G. mellonella.

Substance: RRWRRFFQKAKRLLRRFG [DRGN-6]
- MIC (unit not given) [1]: < 16
- Membrane depolarization, DiSC3(5) [2]: significant depolarization at all concentrations tested
- Percent alpha-helicity, 10 mM phosphate buffer ([3]; 10 mM phosphate buffer): 2.6%
- Percent alpha-helicity, SDS ([3]; 60 mM SDS in 10 mM phosphate buffer): 84.2%
- Percent alpha-helicity, TFE ([3]; 50% TFE in 10 mM phosphate buffer): 70.5%
- Survival benefit in CRKP infected waxworms (CRKP infected waxworms): no survival benefit was observed

Substance: RRWRRFFRKAKRIIG-NH2 [DRGN-11]
- MIC (unit not given) [1]: > 64

Substance: RRWRRFFRKAKRIIG-OH [DRGN-10]
- MIC (unit not given) [1]: > 64

Substance: RRWRRFFRKAKRLLRRFG [DRGN-8]
- MIC (unit not given) [1]: < 16
- Change of MIC compared to DRGN-6 [1]: 2 to 4 fold
- Membrane depolarization, DiSC3(5) [2]: significant depolarization at all concentrations tested
- Survival benefit in CRKP infected waxworms (CRKP infected waxworms): no survival benefit was observed

Substance: RRWRRFFRKAKRLLRRFG-NH2 [DRGN-9]
- Change of MIC compared to DRGN-6 [1]: 2 to 4 fold
